# Assay results taken from paper PMC5454954, “BDNF Binds Its Pro-Peptide with High Affinity and the Common Val66Met Polymorphism Attenuates the Interaction” (International Journal of Molecular Sciences, 2017).
# Chains of the proteins cited; added tags and fusions are not shown. Residues count along the entry.
# UniProt P02769, residues 25-607: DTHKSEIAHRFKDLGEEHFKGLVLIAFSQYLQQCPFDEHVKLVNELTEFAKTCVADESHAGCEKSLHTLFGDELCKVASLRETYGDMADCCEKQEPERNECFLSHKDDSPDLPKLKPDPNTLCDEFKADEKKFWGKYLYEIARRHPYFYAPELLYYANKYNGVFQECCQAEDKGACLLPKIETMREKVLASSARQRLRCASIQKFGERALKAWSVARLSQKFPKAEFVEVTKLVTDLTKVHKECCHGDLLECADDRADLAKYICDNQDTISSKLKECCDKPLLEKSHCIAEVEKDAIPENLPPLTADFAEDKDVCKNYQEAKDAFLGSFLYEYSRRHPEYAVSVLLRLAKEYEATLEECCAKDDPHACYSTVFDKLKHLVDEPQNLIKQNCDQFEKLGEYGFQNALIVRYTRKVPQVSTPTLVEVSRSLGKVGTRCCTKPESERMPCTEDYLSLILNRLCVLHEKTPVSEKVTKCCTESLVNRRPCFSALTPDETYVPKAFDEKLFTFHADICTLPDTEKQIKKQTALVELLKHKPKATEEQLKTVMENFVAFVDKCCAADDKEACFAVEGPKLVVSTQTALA
# UniProt P05019, residues 49-118: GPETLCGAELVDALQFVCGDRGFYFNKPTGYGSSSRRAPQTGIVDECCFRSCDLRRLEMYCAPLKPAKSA
# Results are given in words; binding and its absence hold for the method and conditions named.
# Biological target: T1, recombinant wild-type BDNF pro-peptide (Val at position 66) (human) (UniProt P23560)
# T1 sequence: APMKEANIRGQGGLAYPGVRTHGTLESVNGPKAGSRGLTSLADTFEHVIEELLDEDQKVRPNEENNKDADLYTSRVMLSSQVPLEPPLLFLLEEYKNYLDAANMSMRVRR
# Test: SPR; BIAcore 2000; BDNF pro-peptide (Val or Met) amine-coupled to a CM5 chip at about 2000 RU; neurotrophins and other proteins flowed over; 20 °C, 20 µL/min; HBS-EP (0.01 M HEPES pH 7.4, 0.15 M NaCl, 3 mM EDTA, 0.005% Surfactant P20); both purified
row,binding,Substance
1,no binding,bovine serum albumin (BSA) (from UniProt P02769 25-607)
2,no binding,recombinant human insulin-like growth factor I (IGF-I) (from UniProt P05019 49-118) (ligand)
